Screen size: about 31,000 sequences; about 1,400 (4.5%) were called active.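 Rule for the calls: active = median seed-adjusted z-score above 1 or below -1; inactive = the rest.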 This is one part of the list.

68 sequences from PubChem BioAssay AID1347426 (Functional Genomics Laboratory (NCATS/FGL), 2020) can be followed below.

The nature of the experiment: Novel Modifiers of Survival Motor Neuron (SMN) Protein: Gene Identification via Genome-wide siRNA Screen.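 Note: luminescence tracks full-length SMN protein made from the SMN2 reporter.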 The settings on record: HEK293T SMN2-luciferase reporter, siRNA knockdown, 72 h; actives lie on both sides. A digest of the protocol: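 HEK293T cells stably carrying an SMN2 promoter/splicing cassette–luciferase reporter were reverse-transfected with 1 pmol siRNA per well (druggable-genome library, 3 siRNAs per gene) and grown 72 h at 37 °C. Luminescence, normalized to negative-control siRNA and log10-transformed, was scored as MAD.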
A general note: A reporter such as luciferase makes a cellular process visible.
As for GGAGCAUGGAGAUUAUACATT against NEK5, the median seed-adjusted z-score is inactive: 0.0403.
Consider AGACAGUUUGUACAAUGAATT against ST6GAL1, for which the median seed-adjusted z-score was inactive: -0.14.
For CUCCUGCAGUUGAAGGUGATT against FKBP8 the value was inactive: -0.304; for CCUCGUGACUUGAAUCGGATT against REPS2, inactive: 0.454; for GCGUAUGACUUCUUACUCATT against SH3BP4, inactive: -0.0622.
For CCGUAGAUGUGAAGUGUAATT against NFXL1 the value was inactive: 0.118.
In the case of GGGACUCUCAUUUACCAAATT against ZNF354B, the median seed-adjusted z-score was inactive: 0.393.
Regarding GGCCAUCGCCUACUCAUUGTT against SLC26A1, the median seed-adjusted z-score was inactive: 0.377.
Consider GGCUUGUCUUCGUCUCCAATT against MCM9, for which the median seed-adjusted z-score was inactive: -0.709.
For CCGUGUACGUGGAUGAUGATT against LPHN1 the value was active: -1.03; for GCAAAUGCCUUUAAACCAATT against ARSD, inactive: -0.447; for AGCUGCUGUCUGAACCCAATT against SST, inactive: -0.043.
For the sequence CGGGAUUUAUCAACUCAAATT against DHODH, the median seed-adjusted z-score is inactive: -0.422.
Consider GGAGACCAACAAGACCAUUTT against TSNARE1, for which the median seed-adjusted z-score was inactive: -0.0516.
For CCAUCUCUACACACAAAAATT against F2RL3 the value was inactive: 0.133.
Turning to ACACCAACCCGGGAACAAATT against GSK3A, the median seed-adjusted z-score was inactive: 0.248.
In the case of CAUUGAAGAGAGUAAUUAATT against UGT2B7, the median seed-adjusted z-score is inactive: 0.313.
For CAACUGCAAUUUUCCCUAUTT against ASCL1, the median seed-adjusted z-score was inactive: 0.132.
For ACCUCAUCGUCACCGUCAATT against PARD6G the value was inactive: 0; for UGAUCAGCAUUGACAGGUATT against HTR7, inactive: -0.0111.
In the case of GUGAGACAGUGGUACGUAATT against TRPM8 it was inactive: 0.405; in that of CCUUAGUGCCUGUGACAAATT against S100A7, inactive: -0.253; in that of GAUCCAUUGAUGUUCGAGATT against RXRB, inactive: 0.147.
AGAGAUCUCUACAUCAAAATT against RAP2C: the median seed-adjusted z-score was inactive: 0.443.
For GGUCAUCGCAAGUUUGACATT against TTL the value was inactive: -0.174; for GGAUCCAACUUCAGAUACATT against NUP155, inactive: 0.141; for CAACCACUGUGAGACGAAATT against MFGE8, inactive: 0.0367.
For GCAGUCCUCCUAUCCAGUUTT against HSF5 the value was inactive: 0.369; for UGAAGCAUAUGGUAGCUCATT against RBMY1F, inactive: 0.2; for AAAUCCGAGUGGAUACAAATT against RDH12, inactive: -0.0267.
For CCCGAGACAUUGUCCAGUUTT against CPNE6 the value was inactive: -0.528; for GCAGCCCUGAUGUCCAGUATT against EFS, inactive: -0.299.
Take GAUUUUGUGCGAUCCAUAATT against CBARA1: the median seed-adjusted z-score is inactive: -0.0426.
For GUCUUUGACUUUGAACUGATT against AKR1B1, the median seed-adjusted z-score is inactive: 0.0107.
In the case of CCACAGAGGCUAUGCUAAATT against ACE it was inactive: 0.0874.
Take GCAAAACGGAGGAUUGAGATT against EIF5B: the median seed-adjusted z-score is active: 1.68.
In the case of CAAACUCUCUCUGGACAAATT against STOML2 it was inactive: -0.264.
For GCGUACACCUACAACAACATT against IGFALS the value was inactive: 0.0888.
For GAUGGAUCCAUGUAAUACATT against NCOA1 the value was inactive: 0.537; for GGACAUGCUUUCUCAACUATT against ZNF641, inactive: 0.233.
Regarding GGCUACAAUUUAAGACGAUTT against TNR, the median seed-adjusted z-score was inactive: 0.498.
Regarding AGUUUGAGAUGAUCGAUGATT against MAPK8IP2, the median seed-adjusted z-score was inactive: 0.284.
Take CUACAAAGCCCACUACUUUTT against S1PR2: the median seed-adjusted z-score is inactive: -0.964.
In the case of GGAUCGCCCAUCAUUCUGATT against PLXNA2 it was inactive: 0.308.
In the case of CAACAAAGAUAGCAUGCUATT against PCDHGB7 it was inactive: -0.0065; in that of CCAACUACUUGUCAACAGATT against CHDH, inactive: 0.0241; in that of CACCAAGCCUGGUGGAUGATT against HTRA3, inactive: 0.291.
For GGACUUCUUUGUGCGCCUATT against ABHD8 the value was inactive: -0.48; for CAGCAAUGCUGAUCCGGAATT against ITGA8, inactive: -0.215.
Regarding GGCCGUCAGUAAUACAUCUTT against ZBTB33, the median seed-adjusted z-score was inactive: 0.164.
Take GAGCCUGGAUGUGAAUGGATT against FBXO44: the median seed-adjusted z-score is inactive: -0.45.
For CCGGGAAAGUUUGACUGCATT against OAZ3 the value was inactive: 0.046.
Consider AAGUCAACAUAGCCCGAAATT against RDBP, for which the median seed-adjusted z-score is inactive: 0.975.
In the case of CAACAGACACUGUUAUAAATT against SMPDL3A it was inactive: 0.49; in that of GGAGCGAGCUGGUGCAUAATT against SH3BP5, inactive: -0.707; in that of GGUUCGGACAUCACAAGUATT against ZHX2, inactive: 0.0708.
For GGAAUUGUGGUGUUAGUAATT against POLN the value was inactive: -0.129; for GGAAAGUUGUGCAGUCGUATT against XRN2, inactive: -0.312.
For CCCUAAAACUGUUGGAAGATT against NARG1L the value was inactive: 0.0121; for GCAUGGACCUUGAAGAUCUTT against NALCN, inactive: -0.266.
With CAAGAGUCAGAAAUACUAATT against CNTNAP4, the median seed-adjusted z-score is inactive: -0.414.
With GGAAAACUUGAGUUACGAUTT against HSPH1, the median seed-adjusted z-score is inactive: -0.314.
For GGAAGACUGUUACUACAGUTT against FAS, the median seed-adjusted z-score is inactive: -0.377.
On to GAGAUACCGUGAAACAUUATT against HCK, for which the median seed-adjusted z-score is inactive: -0.48.
Take GGAAGAACGUGUAACCGAATT against RDX: the median seed-adjusted z-score was inactive: 0.123.
For UGCACAAGCUGGACGGUUATT against ADAM11 the value was inactive: 0.102; for CCCUACCCUUUGGACUGAATT against SMOC2, inactive: -0.72.
With CCCAAAAUGUGGAUGCUUUTT against SIRT4, the median seed-adjusted z-score was inactive: 0.623.
